Source: PubChem BioAssay (NCATS)
Where “and” joins values, the source holds several entries; their conditions need not be identical. Equal entries are not always repeated. Inconclusive results, whose numbers are uncertain, are shown with a selection of clear calls. For some assays here: Potencies of inconclusive entries are doubtful fits and often do not repeat. For some assays here: A note “side channel” means that the fit belongs to a control or component signal, not to the main read-out. Calls of active or inactive are those of the source. Unless noted, calls come from the whole dose curve; as a rule, active = well fitted curve in the direction sought with a large enough effect; inconclusive = small, poorly fitted or top-dose-only effect, or another doubt; inactive = no such curve, though single readings can be large; an effect the other way counts as inactive or inconclusive.

By UniProt entry, the sequences of proteins in these tests, tags left out. Where a name states a change or a piece, a line headed by the entry shows the natural chain unless it says otherwise.
UniProt O15648: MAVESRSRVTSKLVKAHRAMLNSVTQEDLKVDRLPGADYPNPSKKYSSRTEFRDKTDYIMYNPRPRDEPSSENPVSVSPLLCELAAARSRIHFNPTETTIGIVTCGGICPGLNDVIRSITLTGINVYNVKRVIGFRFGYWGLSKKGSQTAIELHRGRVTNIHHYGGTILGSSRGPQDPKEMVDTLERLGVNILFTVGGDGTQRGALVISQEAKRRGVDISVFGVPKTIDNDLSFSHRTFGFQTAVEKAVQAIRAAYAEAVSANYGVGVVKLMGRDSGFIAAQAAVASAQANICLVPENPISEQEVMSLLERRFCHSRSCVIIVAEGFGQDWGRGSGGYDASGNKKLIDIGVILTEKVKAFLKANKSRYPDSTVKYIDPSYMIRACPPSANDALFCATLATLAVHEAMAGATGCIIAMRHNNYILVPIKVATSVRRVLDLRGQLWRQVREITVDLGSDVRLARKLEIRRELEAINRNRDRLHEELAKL
UniProt P15289: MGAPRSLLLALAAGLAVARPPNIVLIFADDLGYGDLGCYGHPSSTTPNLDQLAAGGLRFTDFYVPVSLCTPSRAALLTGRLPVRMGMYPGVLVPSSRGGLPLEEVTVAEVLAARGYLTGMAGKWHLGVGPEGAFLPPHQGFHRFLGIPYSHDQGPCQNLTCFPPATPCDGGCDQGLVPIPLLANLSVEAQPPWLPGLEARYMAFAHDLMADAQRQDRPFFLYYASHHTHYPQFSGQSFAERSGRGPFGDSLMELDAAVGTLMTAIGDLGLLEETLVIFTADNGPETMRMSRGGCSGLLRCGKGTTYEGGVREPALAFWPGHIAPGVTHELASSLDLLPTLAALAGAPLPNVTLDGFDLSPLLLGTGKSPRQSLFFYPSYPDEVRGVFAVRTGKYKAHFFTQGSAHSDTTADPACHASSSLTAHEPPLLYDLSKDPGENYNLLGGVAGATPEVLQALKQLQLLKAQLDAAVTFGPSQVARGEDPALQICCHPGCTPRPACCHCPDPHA
UniProt P78324, whole entry, looked up: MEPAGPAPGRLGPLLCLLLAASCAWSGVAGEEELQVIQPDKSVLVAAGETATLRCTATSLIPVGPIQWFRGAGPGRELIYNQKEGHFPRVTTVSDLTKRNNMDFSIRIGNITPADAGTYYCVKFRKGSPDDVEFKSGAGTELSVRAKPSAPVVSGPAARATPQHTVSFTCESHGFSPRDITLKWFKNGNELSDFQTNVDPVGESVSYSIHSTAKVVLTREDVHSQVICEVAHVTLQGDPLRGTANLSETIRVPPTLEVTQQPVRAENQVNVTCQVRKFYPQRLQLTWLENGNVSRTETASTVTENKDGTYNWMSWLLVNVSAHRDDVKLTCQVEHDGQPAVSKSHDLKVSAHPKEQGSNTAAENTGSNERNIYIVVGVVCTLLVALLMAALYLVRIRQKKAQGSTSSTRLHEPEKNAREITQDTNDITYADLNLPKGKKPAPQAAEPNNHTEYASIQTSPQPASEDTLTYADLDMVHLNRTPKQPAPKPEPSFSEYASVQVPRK
UniProt Q08722, whole entry, looked up: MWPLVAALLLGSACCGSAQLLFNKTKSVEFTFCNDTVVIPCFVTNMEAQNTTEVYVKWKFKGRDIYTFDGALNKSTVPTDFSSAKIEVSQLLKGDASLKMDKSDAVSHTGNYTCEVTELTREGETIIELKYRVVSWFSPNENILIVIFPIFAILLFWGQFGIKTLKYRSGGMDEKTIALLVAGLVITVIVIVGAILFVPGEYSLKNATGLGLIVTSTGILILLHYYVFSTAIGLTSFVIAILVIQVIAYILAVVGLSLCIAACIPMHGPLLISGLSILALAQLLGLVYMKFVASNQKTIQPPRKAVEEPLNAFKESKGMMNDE
UniProt Q96QE3: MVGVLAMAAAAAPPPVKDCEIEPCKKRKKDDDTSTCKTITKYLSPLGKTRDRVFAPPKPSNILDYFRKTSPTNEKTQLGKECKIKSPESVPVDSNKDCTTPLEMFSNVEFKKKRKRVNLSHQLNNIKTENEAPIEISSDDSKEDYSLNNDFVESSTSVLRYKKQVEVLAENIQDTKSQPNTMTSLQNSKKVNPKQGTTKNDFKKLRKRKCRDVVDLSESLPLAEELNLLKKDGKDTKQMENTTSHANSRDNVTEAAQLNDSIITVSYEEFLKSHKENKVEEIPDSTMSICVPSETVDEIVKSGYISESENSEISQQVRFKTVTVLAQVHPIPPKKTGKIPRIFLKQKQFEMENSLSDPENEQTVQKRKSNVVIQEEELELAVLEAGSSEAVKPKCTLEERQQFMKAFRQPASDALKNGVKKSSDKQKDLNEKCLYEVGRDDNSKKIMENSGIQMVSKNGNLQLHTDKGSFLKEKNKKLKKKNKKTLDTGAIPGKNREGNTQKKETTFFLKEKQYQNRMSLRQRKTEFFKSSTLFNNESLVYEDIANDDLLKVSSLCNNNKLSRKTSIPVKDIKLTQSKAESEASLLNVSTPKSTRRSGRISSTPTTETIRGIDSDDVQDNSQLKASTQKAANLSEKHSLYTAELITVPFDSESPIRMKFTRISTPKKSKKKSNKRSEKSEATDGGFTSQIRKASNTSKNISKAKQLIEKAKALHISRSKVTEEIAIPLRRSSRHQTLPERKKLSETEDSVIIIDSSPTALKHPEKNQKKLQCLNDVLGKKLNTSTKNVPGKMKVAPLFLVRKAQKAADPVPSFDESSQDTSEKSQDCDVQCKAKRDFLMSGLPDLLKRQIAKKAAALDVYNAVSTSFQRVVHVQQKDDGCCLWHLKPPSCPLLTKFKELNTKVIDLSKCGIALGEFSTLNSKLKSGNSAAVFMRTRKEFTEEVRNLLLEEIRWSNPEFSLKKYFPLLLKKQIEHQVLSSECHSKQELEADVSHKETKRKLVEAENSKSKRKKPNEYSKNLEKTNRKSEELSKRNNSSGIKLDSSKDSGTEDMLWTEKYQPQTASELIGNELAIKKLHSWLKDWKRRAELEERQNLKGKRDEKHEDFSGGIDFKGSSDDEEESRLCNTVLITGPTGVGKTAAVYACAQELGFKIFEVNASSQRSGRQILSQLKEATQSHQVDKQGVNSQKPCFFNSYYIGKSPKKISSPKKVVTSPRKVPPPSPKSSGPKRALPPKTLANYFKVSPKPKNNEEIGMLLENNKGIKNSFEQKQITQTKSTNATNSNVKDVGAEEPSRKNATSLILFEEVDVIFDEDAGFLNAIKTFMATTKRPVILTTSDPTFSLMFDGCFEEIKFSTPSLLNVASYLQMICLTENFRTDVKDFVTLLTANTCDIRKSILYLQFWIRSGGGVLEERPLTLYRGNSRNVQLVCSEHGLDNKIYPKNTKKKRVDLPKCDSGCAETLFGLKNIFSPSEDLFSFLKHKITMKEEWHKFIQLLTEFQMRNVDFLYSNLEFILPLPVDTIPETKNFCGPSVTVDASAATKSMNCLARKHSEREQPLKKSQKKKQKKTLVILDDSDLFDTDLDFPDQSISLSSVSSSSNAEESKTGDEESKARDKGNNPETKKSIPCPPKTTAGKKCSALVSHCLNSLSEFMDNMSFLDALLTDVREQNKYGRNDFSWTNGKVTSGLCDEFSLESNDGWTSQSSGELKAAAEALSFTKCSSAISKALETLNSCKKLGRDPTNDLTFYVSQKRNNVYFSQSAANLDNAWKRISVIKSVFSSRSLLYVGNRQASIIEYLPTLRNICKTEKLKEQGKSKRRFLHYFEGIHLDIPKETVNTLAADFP
UniProt O94782: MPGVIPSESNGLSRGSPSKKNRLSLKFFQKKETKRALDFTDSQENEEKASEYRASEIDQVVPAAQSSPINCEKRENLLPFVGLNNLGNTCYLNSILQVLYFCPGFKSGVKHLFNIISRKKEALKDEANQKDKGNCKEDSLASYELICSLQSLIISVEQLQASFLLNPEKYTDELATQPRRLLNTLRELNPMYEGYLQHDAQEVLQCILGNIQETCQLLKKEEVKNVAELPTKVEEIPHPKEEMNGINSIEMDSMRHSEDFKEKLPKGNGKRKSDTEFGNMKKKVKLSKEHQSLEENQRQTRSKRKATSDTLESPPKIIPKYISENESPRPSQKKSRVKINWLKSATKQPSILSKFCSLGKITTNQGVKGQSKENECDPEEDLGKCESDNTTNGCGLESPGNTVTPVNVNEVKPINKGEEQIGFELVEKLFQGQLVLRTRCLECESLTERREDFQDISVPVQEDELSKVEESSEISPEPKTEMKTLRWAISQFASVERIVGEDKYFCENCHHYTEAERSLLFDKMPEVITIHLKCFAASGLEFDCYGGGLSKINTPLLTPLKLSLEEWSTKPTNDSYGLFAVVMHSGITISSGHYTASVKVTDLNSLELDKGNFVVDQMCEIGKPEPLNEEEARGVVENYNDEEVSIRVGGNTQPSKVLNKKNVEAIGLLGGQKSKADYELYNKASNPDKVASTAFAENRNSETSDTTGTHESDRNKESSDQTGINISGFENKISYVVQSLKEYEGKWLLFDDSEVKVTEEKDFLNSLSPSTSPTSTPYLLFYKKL
UniProt P54132: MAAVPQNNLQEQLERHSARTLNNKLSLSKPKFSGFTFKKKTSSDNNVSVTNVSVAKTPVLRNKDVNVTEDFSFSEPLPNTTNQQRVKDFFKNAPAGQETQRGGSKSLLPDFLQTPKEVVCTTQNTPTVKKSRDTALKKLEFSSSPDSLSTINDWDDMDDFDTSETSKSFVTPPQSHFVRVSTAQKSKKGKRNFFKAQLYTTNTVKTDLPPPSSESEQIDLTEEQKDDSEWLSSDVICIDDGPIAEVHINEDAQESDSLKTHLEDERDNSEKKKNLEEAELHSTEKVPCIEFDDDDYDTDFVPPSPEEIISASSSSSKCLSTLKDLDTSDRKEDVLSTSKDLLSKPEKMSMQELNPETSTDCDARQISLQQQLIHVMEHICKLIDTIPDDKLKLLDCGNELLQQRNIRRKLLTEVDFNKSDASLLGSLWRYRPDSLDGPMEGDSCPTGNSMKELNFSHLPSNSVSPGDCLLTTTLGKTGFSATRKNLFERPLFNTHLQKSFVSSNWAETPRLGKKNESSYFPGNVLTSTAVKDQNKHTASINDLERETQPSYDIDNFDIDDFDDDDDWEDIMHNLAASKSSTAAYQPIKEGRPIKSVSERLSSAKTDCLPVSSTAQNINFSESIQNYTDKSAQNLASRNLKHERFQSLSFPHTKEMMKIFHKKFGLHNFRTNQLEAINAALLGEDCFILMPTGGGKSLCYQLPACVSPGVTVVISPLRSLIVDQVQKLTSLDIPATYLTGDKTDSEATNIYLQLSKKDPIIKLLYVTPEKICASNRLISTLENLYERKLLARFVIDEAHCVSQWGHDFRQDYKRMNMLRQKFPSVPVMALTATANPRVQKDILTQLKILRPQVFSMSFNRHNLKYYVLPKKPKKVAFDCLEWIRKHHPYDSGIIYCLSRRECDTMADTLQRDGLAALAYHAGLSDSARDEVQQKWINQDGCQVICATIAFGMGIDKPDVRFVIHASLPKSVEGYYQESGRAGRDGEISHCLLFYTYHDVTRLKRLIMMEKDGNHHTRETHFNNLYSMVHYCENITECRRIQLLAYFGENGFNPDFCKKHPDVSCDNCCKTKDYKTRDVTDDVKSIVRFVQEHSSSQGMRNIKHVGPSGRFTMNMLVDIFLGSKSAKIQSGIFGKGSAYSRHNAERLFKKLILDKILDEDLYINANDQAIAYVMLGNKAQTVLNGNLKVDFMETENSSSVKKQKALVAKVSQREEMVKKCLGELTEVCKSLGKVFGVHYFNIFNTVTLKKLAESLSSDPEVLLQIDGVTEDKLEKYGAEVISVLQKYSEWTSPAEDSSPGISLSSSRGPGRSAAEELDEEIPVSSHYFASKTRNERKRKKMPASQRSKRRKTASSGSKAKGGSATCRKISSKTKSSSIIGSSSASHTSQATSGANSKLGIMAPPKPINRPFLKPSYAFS

Tests used:
[1] = biological target: ATP-dependent 6-phosphofructokinase (Trypanosoma brucei brucei) (UniProt O15648); assay: qHTS Validation Assay to Find Inhibitors of T. brucei phosphofructokinase (AID 485368); conditions: activity change, negative = inhibition: at 57.5 µM (top of the series); note: potency is the fitted concentration of half-maximal effect
Outline: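 ADP-Glo luminescence, two-step: residual ATP depleted, then ADP converted to ATP for luciferase. Enzyme 1.25 nM, F6P 0.5 mM, ATP 0.1 mM, pH 8.0 TEA buffer, 45 min RT. Curves fitted and classed by quality and efficacy.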

[2] = Nrf2 qHTS screen for inhibitors: Validation (AID 493153; active = well fitted inhibition curve with a large enough effect in the main read-out, with a control signal flat, not every such curve was filed as active; inconclusive = small, poorly fitted or top-dose-only effect, or effect the other way, or a change in a side signal; inactive = no such curve, though single readings can be large or run the other way;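 note: A549 cells with ARE-driven firefly luciferase reporter reporting Nrf2 activity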)
Outline: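 Concentration-response on A549 ARE_Fluc reporter cells exposed 18-24 h at 37 C, 5% CO2. Cytotoxicity read first by CellTiter-Fluor fluorescence (Ex 405/Em 525), then Nrf2 inhibition by BugLite luminescence after 15 min.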

[3] = qHTS for Inhibitors of ATXN expression: Validation of Cytotoxic Assay (AID 588349); note: potency is the fitted concentration of half-maximal effect
Outline: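 Cytotoxicity counter-screen: ATP-based luminescent viability (CellTiter Glo) after 72 hr exposure of HEK293 cells to a compound titration at 37 degrees C.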

[4] = qHTS for Inhibitors of ATXN expression: Validation (AID 588378); note: potency is the fitted concentration of half-maximal effect; nearly all actives have a fitted effect of over 75% in size
Outline: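 After a 2 h attachment and 24 h compound incubation, HEK293-ATXN2-FFLuc wells are read for fluorescence at 405 nm excitation/525 nm emission as a viability measure, then for Bright-Glo luminescence reflecting ATXN2 expression.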

[5] = biological target: Arylsulfatase A (Homo sapiens) (UniProt P15289); assay: qHTS screen for enhancers of Arylsulfatase A (ASA1): LOPAC Validation Assay (AID 720538); conditions: activity change, positive = activation: at 57.5 µM (top of the series); note: potency is the fitted concentration of half-maximal effect
Outline: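 Cell-based enhancement test: residual ASA activity in SV40-transformed I179S patient fibroblasts is measured by pNCS turnover (0.5mM final, 14h, room temperature) following 48h compound incubation; higher fluorescence indicates activation.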

[6] = Natriuretic polypeptide receptor (hNpr1) antagonism - Pilot counterscreen GloSensor control cell line (AID 1347045; calls by dose curve; note: potency is the fitted concentration of half-maximal effect)
Outline: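 Control counterscreen: luciferase cGMP-biosensor HEK293 cells (no Npr1) received compound for 30 min at room temperature after GloSensor substrate loading. Luminescence was measured before and 20 min after soluble guanylyl cyclase activation by 50 uM nitroprusside.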

[7] = biological target: Tyrosine-protein phosphatase non-receptor type substrate 1 (Homo sapiens) + Leukocyte surface antigen CD47 (Homo sapiens) (UniProt P78324+Q08722); assay: CD47-SIRPalpha protein protein interaction - HTRF assay qHTS validation (AID 1347058; active = well fitted curve in the direction sought with a large enough effect in the signal ratio, not every such curve was filed as active; inconclusive = small, poorly fitted or top-dose-only effect, or effect the other way, or a change in a side signal; inactive = no such curve, though single readings can be large or run the other way; the % refers to the signal ratio)
Outline: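 Soluble extracellular domains (6His-CD47, Avi-tag-biotinylated SIRPalpha) in PBS pH 7.4 with 0.05% IGEPAL CA-630. Compounds were preincubated 30 min at RT with CD47 and anti-His-Eu, then SIRPalpha and SAV-XL665 were added. TR-FRET 665/615 ratio.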

[8] = biological target: Lysine-specific demethylase 5B (Homo sapiens) (UniProt Q9UGL1); assay: Optimization screen for KDM5B Histone Demethylases FDH coupled qHTS against the LOPAC library (AID 1347166); conditions: KDM5B demethylation, FDH-coupled NADH fluorescence; series mostly up to 57.5 µM; note: potency is the fitted concentration of half-maximal effect
Outline: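 KDM5BDeltaAP (200nM final) in 50mM HEPES pH 7.5, 0.01% Tween-20 was preincubated with compound for 10 min at room temperature. A substrate mix of 12.5uM H3K4Me3, 25uM a-ketoglutarate, ascorbate, Fe2+, NAD+ and formaldehyde dehydrogenase was then added. NADH fluorescence (340/450 nm) was read initially and after 30 min.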

[9] = qHTS to identify inhibitors of the type 1 interferon - major histocompatibility complex class I in skeletal muscle: primary screen against the NCATS LOPAC collection (AID 1347405); conditions: iHSKM muscle cells, IFN-b-induced MHC-I HiBiT luminescence, 24 h; activity change, negative = inhibition: at 45.9 µM (top of the series);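 note: lytic HiBiT luminescence reporting HLA-B protein level; potency is the fitted concentration of half-maximal effect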
Outline: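 After 24 h at 37 C with compounds (7-point, 1:4.3 dilutions, 46 uM top final) plus 4 ng/ml IFN-beta, luminescence from lytic HiBiT detection was measured. HLA-B*08:01 in C25cl48 myoblasts carried an endogenous C-terminal HiBiT tag; medium lacked dexamethasone.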

[10] = biological target: ATPase family AAA domain-containing protein 5 (Homo sapiens) (UniProt Q96QE3); assay: Validation screen for small molecules that inhibit ELG1-dependent DNA repair in human embryonic kidney (HEK293T) cells expressing luciferase-tagged ELG1 (AID 493107); conditions: HEK293T ELG1-luciferase level, luminescence, 5-fluorouridine co-treatment, 16 h; series mostly up to 46.1 µM; note: potency is the fitted concentration of half-maximal effect; nearly all actives have a fitted effect of over 70% in size
Outline: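 Luciferase read-out, ONE-Glo, 30 min at room temperature, follows 16 h co-exposure at 37 C of compound and the DNA-damaging agent 5-fluorouridine. Cells: HEK293T with ELG1-luciferase fusion, 2,000 per well, DMSO as vehicle.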

[11] = Cytometry Cell-Based qHTS for Inhibitors of the mTORC1 Signaling Pathway in MEF cells (AID 2668); note: potency is the fitted concentration of half-maximal effect
Outline: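 In MEFs grown in DMEM + 10% FBS, a 24 hrs compound exposure preceded imaging of phospho-rpS6 Ser235/236 by laser-scanning cytometry.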

[12] = biological target: Ubiquitin carboxyl-terminal hydrolase 1 (Homo sapiens) (UniProt O94782); assay: Inhibitors of USP1/UAF1: Pilot qHTS (AID 504865); note: potency is the fitted concentration of half-maximal effect; nearly all actives have a fitted effect of over 35% in size
Outline: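 Enzyme-free wells gave the negative control, while test wells held 1nM USP1/UAF1 preincubated with compound for 15 min at room temperature. Ub-Rho at 150nM final started the reaction, and fluorescence at 480/540 nm was recorded kinetically.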

[13] = biological target: RecQ-like DNA helicase BLM (Homo sapiens) (UniProt P54132); assay: qHTS Validation Assay for Inhibitors of Bloom's syndrome helicase (BLM) (AID 2364); note: potency is the fitted concentration of half-maximal effect
Outline: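 50 nM BLM preincubated 15 min at room temperature with compound in pH 8.0 Tris buffer containing 2.5 ug/ml poly(dI-dC); started with 200 nM TAMRA/BHQ-2 forked duplex and 2 mM ATP (final). Unwinding read as TAMRA fluorescence increase, two reads 2 h apart.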

[14] = Validation screen for small molecules that induce DNA re-replication in MCF 10A normal breast cells (AID 463097); note: potency is the fitted concentration of half-maximal effect; nearly all actives have a fitted effect of over 60% in size
Outline: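 Following 48 hr compound incubation (37 C, 5% CO2), MCF 10A cells receive Hoechst for 40 min at 37 C. Nuclei are then scanned (excitation 405 nm, emission 500-530 nm) for total fluorescence intensity.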

[15] = Quantitative high throughput screen for delayed death inhibitors of the malarial parasite plastid, 96 hour incubation (AID 488745); note: potency is the fitted concentration of half-maximal effect; nearly all actives have a fitted effect of over 70% in size
Outline: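 Decreased firefly luciferase luminescence indicates inhibited growth of reporter-integrated P. falciparum after two generations (96 h, 37 C, 5% CO2). Infected erythrocytes at 0.1% parasitemia, 2% hematocrit, in Albumax-supplemented RPMI 1640.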

[16] = biological target: Endonuclease 4 (Escherichia coli (strain K12)) (UniProt P0A6C1); assay: Counterscreen for APE1 Inhibitors: qHTS Validation Assay for Inhibitors of Endonuclease IV (AID 1708); note: potency is the fitted concentration of half-maximal effect
Outline: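 Conditions: 2 nM enzyme, 50 nM TAMRA/BHQ-2 substrate, pH 7.5 Tris buffer with 2 mM MgCl2, RT. Compound preincubation 15 min; readout three fluorescence reads 60 s apart, third-minus-first.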

[17] = Primary qHTS for small molecule stabilizers of the endoplasmic reticulum resident proteome: Secreted ER Calcium Modulated Protein (SERCaMP) assay (AID 1508630); conditions: SH-SY5Y GLuc-SERCaMP secretion, thapsigargin, luminescence; activity change, negative = inhibition: at 38.4 µM (top of the series) unless noted; note: potency is the fitted concentration of half-maximal effect
Outline: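 The SH-SY5Y reporter protocol was run at 3 concentrations up to 38.3 uM (primary) or 11 concentrations (follow-up): 16 h compound, 100 nM thapsigargin for 4 h, then extracellular luciferase luminescence.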

SMILES	Potency [1]	Potency [2]	Potency [3]	Potency [4]	Potency [5]	Potency [6]	Potency [7]	Potency [8]	Potency [9]	Potency [10]	Potency [11]	Potency [12]	Potency [13]	Potency [14]	Potency [15]	Potency [16]	Potency [17]
OCC1O[C@H]([S-])[C@H](O)[C@@H](O)[C@@H]1O.[Au+] (some centres undefined)	active: 2.69 µM	inactive	inconclusive: 31.6 µM [cytotoxic, partial curve]	inconclusive: 22.4 µM [inhibitor, single point]	inconclusive: 37.9 µM [activator, single point]	inconclusive: 0.117 µM [inhibitor, partial curve, poor fit]	inconclusive: 8.26 µM [side channel, falling, partial curve]	inconclusive: 14.1 µM [inhibitor, partial curve, poor fit]	active: 17.8 µM	–	–	–	–	–	–	–	–
Nc1nc(SCc2ccc([N+](=O)[O-])cc2)c2ncn([C@@H]3O[C@H](CO)[C@@H](O)[C@H]3O)c2n1	inconclusive: 21.3 µM [falling, partial curve]	–	–	–	inactive	inconclusive: 0.0033 µM [inhibitor, full curve, poor fit]	inconclusive: 16.5 µM [side channel, falling, partial curve]	inactive	–	active: 0.146 µM	–	–	–	–	–	–	–
CC[C@@H](C)[C@H]1O[C@]2(CC[C@H]1C)C[C@@H]1C[C@@H](CC=C(C)[C@@H](O[C@H]3C[C@H](OC)[C@@H](O[C@H]4C[C@H](OC)[C@@H](O)[C@H](C)O4)[C@H](C)O3)[C@@H](C)C=CC=C3CO[C@@H]4[C@H](O)C(C)=C[C@@H](C(=O)O1)[C@]34O)O2	–	–	inconclusive: 7.08 µM [cytotoxic, single point]	inconclusive: 4.47 µM [inhibitor, full curve, poor fit]	inactive	inconclusive: 26.1 µM [inhibitor, partial curve, poor fit]	–	–	inconclusive: 20 µM [inhibitor, partial curve, poor fit]	inconclusive: 23.1 µM [inhibitor, single point]	inconclusive: 13.1 µM [falling, single point]	inconclusive: 8.91 µM [inhibitor, full curve]	–	–	–	–	–
O=C1Nc2ccc(I)cc2/C1=C/c1cc(Br)c(O)c(Br)c1	inconclusive: 33.8 µM [falling, single point]	–	inconclusive: 1.78 µM [cytotoxic, partial curve, poor fit]	–	inconclusive: 37.9 µM [activator, single point]	inconclusive: 11.7 µM [inhibitor, partial curve, poor fit]	–	–	inconclusive: 25.1 µM [inhibitor, partial curve, poor fit]	–	inconclusive: 4.65 µM [falling, partial curve]	active: 44.7 µM	inconclusive: 44.7 µM [inhibitor, partial curve]	inconclusive: 2.24 µM [activator, partial curve]	inconclusive: 16.5 µM [inhibitor, single point]	–	–
NC(=Nc1ccccc1)NC(=O)c1nc(Cl)c(N)nc1N	inconclusive: 8.49 µM [falling, single point]	–	inconclusive: 28.2 µM [cytotoxic, partial curve, poor fit]	–	–	inactive	inconclusive: 11.7 µM [side channel, falling, partial curve]	inconclusive: 25.1 µM [inhibitor, partial curve, poor fit]	inconclusive: 15.8 µM [inhibitor, partial curve]	inconclusive: 29.1 µM [inhibitor, single point]	–	–	–	active: 14.1 µM	inconclusive: 16.5 µM [inhibitor, single point]	inconclusive: 1.41 µM [inhibitor, full curve, poor fit]	inconclusive: 22.4 µM [inhibitor, partial curve, poor fit] and inconclusive: 44.7 µM [inhibitor, partial curve, poor fit] and inconclusive: 11.2 µM [inhibitor, single point]
